# The supplement of paper PMC8728848
# The other results are listed elsewhere or left out.
# Key:
# Experiment in all cases: glycan array binding signal (z-score within array); higher = stronger binding
# Details in all cases: glycan notation: IUPAC condensed, linker removed
# [1] = biological target: GlcNAc(b1-3)Gal(b1-4)GlcNAc(b1-3)Gal(b1-4)GlcNAc(b1-3)GalNAc
# Summary of the method: (§1)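 The binding signal is a Z-score computed within each array and averaged over linkers. Arrays of the same protein sequence at different concentrations or buffers were also averaged together. Data originate from 3228 arrays in the Consortium for Functional Glycomics database, kept only where the protein sequence was available.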
# [2] = biological target: GlcNAc(b1-3)Gal(b1-4)GlcNAc(b1-3)GalNAc
# Summary of the method: as §1
# [3] = biological target: GlcNAc(b1-3)Gal(b1-4)GlcNAc(b1-3)[GlcNAc(b1-3)Gal(b1-4)GlcNAc(b1-3)]GalNAc
# Summary of the method: as §1
# [4] = biological target: GlcNAc(b1-3)Gal(b1-4)GlcNAc(b1-6)[Gal(b1-3)]GalNAc
# Summary of the method: as §1
# [5] = biological target: GlcNAc(b1-3)Gal(b1-4)GlcNAc(b1-6)[GlcNAc(b1-3)Gal(b1-3)]GalNAc
# Summary of the method: as §1
# [6] = biological target: GlcNAc(b1-3)Gal(b1-4)GlcNAc(b1-6)[GlcNAc(b1-3)]Gal(b1-4)GlcNAc
# Summary of the method: as §1
# GlcNAc(b1-3)GalNAc = biological target: GlcNAc(b1-3)GalNAc
# Summary of the method: as §1
# GlcNAc(b1-3)Man = biological target: GlcNAc(b1-3)Man
# Summary of the method: as §1
# [7] = biological target: GlcNAc(b1-3)[GlcNAc(b1-4)][GlcNAc(b1-6)]GlcNAc
# Summary of the method: as §1
# [8] = biological target: GlcNAc(b1-3)[GlcNAc(b1-6)]Gal(b1-4)GlcNAc
# Summary of the method: as §1
# [9] = biological target: GlcNAc(b1-3)[GlcNAc(b1-6)]GalNAc
# Summary of the method: as §1
# [10] = biological target: GlcNAc(b1-4)Gal(b1-4)GlcNAc
# Summary of the method: as §1
# GlcNAc(b1-4)GlcNAc = biological target: GlcNAc(b1-4)GlcNAc
# Summary of the method: as §1
# [11] = biological target: GlcNAc(b1-4)GlcNAc(b1-4)GlcNAc
# Summary of the method: as §1
# [12] = biological target: GlcNAc(b1-4)GlcNAc(b1-4)GlcNAc(b1-4)GlcNAc(b1-4)GlcNAc
# Summary of the method: as §1
# [13] = biological target: GlcNAc(b1-4)GlcNAc(b1-4)GlcNAc(b1-4)GlcNAc(b1-4)GlcNAc(b1-4)GlcNAc
# Summary of the method: as §1
# [14] = biological target: GlcNAc(b1-4)[GlcNAc(b1-6)]GalNAc
# Summary of the method: as §1
# [15] = biological target: GlcNAc(b1-6)Gal(b1-4)GlcNAc
# Summary of the method: as §1
# GlcNAc(b1-6)GalNAc = biological target: GlcNAc(b1-6)GalNAc
# Summary of the method: as §1
# [16] = biological target: GlcNAc6S(b1-3)Gal(b1-4)GlcNAc
# Summary of the method: as §1
# Kdn(a2-3)Gal(b1-3)GalNAc = biological target: Kdn(a2-3)Gal(b1-3)GalNAc
# Summary of the method: as §1
# Kdn(a2-3)Gal(b1-3)GlcNAc = biological target: Kdn(a2-3)Gal(b1-3)GlcNAc
# Summary of the method: as §1
# Kdn(a2-3)Gal(b1-4)Glc = biological target: Kdn(a2-3)Gal(b1-4)Glc
# Summary of the method: as §1
# Kdn(a2-3)Gal(b1-4)GlcNAc = biological target: Kdn(a2-3)Gal(b1-4)GlcNAc
# Summary of the method: as §1
# [17] = biological target: Kdn(a2-3)Gal(b1-4)[Fuc(a1-3)]GlcNAc
# Summary of the method: as §1
# Kdn(a2-6)Gal(b1-4)GlcNAc = biological target: Kdn(a2-6)Gal(b1-4)GlcNAc
# Summary of the method: as §1
# [18] = biological target: Man(a1-2)Man(a1-2)Man(a1-3)Man
# Summary of the method: as §1
# [19] = biological target: Man(a1-2)Man(a1-2)Man(a1-6)[Man(a1-3)]Man
# Summary of the method: as §1
# Man(a1-2)Man(a1-3)Man = biological target: Man(a1-2)Man(a1-3)Man
# Summary of the method: as §1
# [20] = biological target: Man(a1-2)Man(a1-3)[Man(a1-2)Man(a1-6)]Man
# Summary of the method: as §1
# [21] = biological target: Man(a1-2)Man(a1-3)[Man(a1-2)Man(a1-6)]Man(a1-6)[Man(a1-2)Man(a1-2)Man(a1-3)]Man
# Summary of the method: as §1
# [22] = biological target: Man(a1-2)Man(a1-3)[Man(a1-2)Man(a1-6)]Man(a1-6)[Man(a1-2)Man(a1-2)Man(a1-3)]Man(b1-4)GlcNAc(b1-4)GlcNAc
# Summary of the method: as §1
# [23] = biological target: Man(a1-2)Man(a1-3)[Man(a1-6)]Man(a1-6)[Man(a1-2)Man(a1-3)]Man(b1-4)GlcNAc(b1-4)GlcNAc
# Summary of the method: as §1
# [24] = biological target: Man(a1-2)Man(a1-6)[Man(a1-3)]Man(a1-6)[Man(a1-2)Man(a1-2)Man(a1-3)]Man
# Summary of the method: as §1
# [25] = biological target: Man(a1-2)Man(a1-6)[Man(a1-3)]Man(a1-6)[Man(a1-2)Man(a1-2)Man(a1-3)]Man(b1-4)GlcNAc(b1-4)GlcNAc
# Summary of the method: as §1
# Man(a1-3)[Man(a1-6)]Man = biological target: Man(a1-3)[Man(a1-6)]Man
# Summary of the method: as §1
# [26] = biological target: Man(a1-3)[Man(a1-6)]Man(a1-6)[Man(a1-2)Man(a1-3)]Man(b1-4)GlcNAc(b1-4)GlcNAc
# Summary of the method: as §1
# [27] = biological target: Man(a1-3)[Man(a1-6)]Man(a1-6)[Man(a1-3)]Man
# Summary of the method: as §1
# [28] = biological target: Man(a1-3)[Man(a1-6)]Man(a1-6)[Man(a1-3)]Man(b1-4)GlcNAc(b1-4)GlcNAc
# Summary of the method: as §1
# [29] = biological target: Man(a1-3)[Man(a1-6)]Man(b1-4)GlcNAc(b1-4)GlcNAc
# Summary of the method: as §1
# [30] = biological target: Man(a1-3)[Man(a1-6)]Man(b1-4)GlcNAc(b1-4)[Fuc(a1-6)]GlcNAc
# Summary of the method: as §1
# Man(a1-6)Man = biological target: Man(a1-6)Man
# Summary of the method: as §1
# Man(b1-4)GlcNAc = biological target: Man(b1-4)GlcNAc
# Summary of the method: as §1
# MurNAc(b1-4)GlcNAc = biological target: MurNAc(b1-4)GlcNAc
# Summary of the method: as §1
# Neu5Ac(a2-3)Gal = biological target: Neu5Ac(a2-3)Gal
# Summary of the method: as §1
binder,measurement,setting,value
Lb MiSSP8 (Laccaria bicolor) (protein) MYFHTLFACATLMLITTAHASPTVINSLDSRKADLNGDVEARHAADWRRDSDWRRDSDWRRDSDWRRDSD,glycan array binding signal (z-score),[1],-0.771
same,glycan array binding signal (z-score),[2],-0.405
same,glycan array binding signal (z-score),[3],0.105
same,glycan array binding signal (z-score),[4],-0.668
same,glycan array binding signal (z-score),[5],0.078
same,glycan array binding signal (z-score),[6],-0.937
same,glycan array binding signal (z-score),GlcNAc(b1-3)GalNAc,-0.606
same,glycan array binding signal (z-score),GlcNAc(b1-3)Man,0.416
same,glycan array binding signal (z-score),[7],-0.35
same,glycan array binding signal (z-score),[8],-1.04
same,glycan array binding signal (z-score),[9],-0.668
same,glycan array binding signal (z-score),[10],1.29
same,glycan array binding signal (z-score),GlcNAc(b1-4)GlcNAc,0.385
same,glycan array binding signal (z-score),[11],0.319
same,glycan array binding signal (z-score),[12],1.1
same,glycan array binding signal (z-score),[13],-0.343
same,glycan array binding signal (z-score),[14],-0.702
same,glycan array binding signal (z-score),[15],-0.157
same,glycan array binding signal (z-score),GlcNAc(b1-6)GalNAc,0.696
same,glycan array binding signal (z-score),[16],0.547
same,glycan array binding signal (z-score),Kdn(a2-3)Gal(b1-3)GalNAc,1.02
same,glycan array binding signal (z-score),Kdn(a2-3)Gal(b1-3)GlcNAc,-0.509
same,glycan array binding signal (z-score),Kdn(a2-3)Gal(b1-4)Glc,-0.254
same,glycan array binding signal (z-score),Kdn(a2-3)Gal(b1-4)GlcNAc,-0.985
same,glycan array binding signal (z-score),[17],-0.226
same,glycan array binding signal (z-score),Kdn(a2-6)Gal(b1-4)GlcNAc,-0.122
same,glycan array binding signal (z-score),[18],-0.336
same,glycan array binding signal (z-score),[19],-0.033
same,glycan array binding signal (z-score),Man(a1-2)Man(a1-3)Man,-0.709
same,glycan array binding signal (z-score),[20],-1.06
same,glycan array binding signal (z-score),[21],-0.778
same,glycan array binding signal (z-score),[22],-0.033
same,glycan array binding signal (z-score),[23],-0.564
same,glycan array binding signal (z-score),[24],-0.578
same,glycan array binding signal (z-score),[25],-0.122
same,glycan array binding signal (z-score),Man(a1-3)[Man(a1-6)]Man,0.768
same,glycan array binding signal (z-score),[26],-0.033
same,glycan array binding signal (z-score),[27],2.36
same,glycan array binding signal (z-score),[28],-0.813
same,glycan array binding signal (z-score),[29],-0.613
same,glycan array binding signal (z-score),[30],-0.412
same,glycan array binding signal (z-score),Man(a1-6)Man,0.43
same,glycan array binding signal (z-score),Man(b1-4)GlcNAc,0.74
same,glycan array binding signal (z-score),MurNAc(b1-4)GlcNAc,0.23
same,glycan array binding signal (z-score),Neu5Ac(a2-3)Gal,-0.606

# Some of the entries so far, with bars between the fields:
binder | measurement | setting | value
Lb MiSSP8 (Laccaria bicolor) (protein) MYFHTLFACATLMLITTAHASPTVINSLDSRKADLNGDVEARHAADWRRDSDWRRDSDWRRDSDWRRDSD | glycan array binding signal (z-score) | GlcNAc(b1-3)GalNAc | -0.606
same | glycan array binding signal (z-score) | GlcNAc(b1-3)Man | 0.416
same | glycan array binding signal (z-score) | [7] | -0.35
same | glycan array binding signal (z-score) | [8] | -1.04
